In the supplement of paper PMC6411743:
± gives the standard deviation of the averaged measurements. Only a part is listed here, and it is no random draw. Most entries show no effect beyond the scatter of the controls.

Chains of the proteins cited; added tags and fusions are not shown. Lines headed by an entry give the natural chain unless they say otherwise; changes in a name come on top.
UniProt P49591: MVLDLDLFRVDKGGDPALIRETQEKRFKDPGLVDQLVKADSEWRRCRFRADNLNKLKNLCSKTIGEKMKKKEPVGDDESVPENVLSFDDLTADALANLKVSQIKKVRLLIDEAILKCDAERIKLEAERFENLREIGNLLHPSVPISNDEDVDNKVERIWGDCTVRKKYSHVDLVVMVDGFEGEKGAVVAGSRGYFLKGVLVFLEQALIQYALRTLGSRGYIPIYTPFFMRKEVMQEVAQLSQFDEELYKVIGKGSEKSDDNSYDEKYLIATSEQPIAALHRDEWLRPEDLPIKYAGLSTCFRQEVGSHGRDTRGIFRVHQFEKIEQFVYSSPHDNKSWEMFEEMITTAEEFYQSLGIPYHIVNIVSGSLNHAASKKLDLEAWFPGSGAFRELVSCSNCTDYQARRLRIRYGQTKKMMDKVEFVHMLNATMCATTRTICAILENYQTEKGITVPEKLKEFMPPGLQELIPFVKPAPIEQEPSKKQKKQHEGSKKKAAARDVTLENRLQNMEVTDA
UniProt Q69YN2: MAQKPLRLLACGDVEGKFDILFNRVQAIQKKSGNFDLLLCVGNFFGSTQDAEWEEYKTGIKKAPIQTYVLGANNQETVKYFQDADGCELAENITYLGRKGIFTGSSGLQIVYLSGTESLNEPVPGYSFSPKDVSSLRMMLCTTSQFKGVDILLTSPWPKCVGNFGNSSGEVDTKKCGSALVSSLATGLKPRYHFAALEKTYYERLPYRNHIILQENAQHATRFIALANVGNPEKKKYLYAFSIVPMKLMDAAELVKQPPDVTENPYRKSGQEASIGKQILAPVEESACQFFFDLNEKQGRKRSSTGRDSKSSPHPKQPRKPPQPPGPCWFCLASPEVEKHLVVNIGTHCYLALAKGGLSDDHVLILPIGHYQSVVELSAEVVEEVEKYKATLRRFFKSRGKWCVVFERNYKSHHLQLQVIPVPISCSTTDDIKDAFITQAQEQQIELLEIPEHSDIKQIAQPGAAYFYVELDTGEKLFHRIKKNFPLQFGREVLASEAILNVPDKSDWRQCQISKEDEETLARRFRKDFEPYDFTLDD
UniProt Q5VZF2: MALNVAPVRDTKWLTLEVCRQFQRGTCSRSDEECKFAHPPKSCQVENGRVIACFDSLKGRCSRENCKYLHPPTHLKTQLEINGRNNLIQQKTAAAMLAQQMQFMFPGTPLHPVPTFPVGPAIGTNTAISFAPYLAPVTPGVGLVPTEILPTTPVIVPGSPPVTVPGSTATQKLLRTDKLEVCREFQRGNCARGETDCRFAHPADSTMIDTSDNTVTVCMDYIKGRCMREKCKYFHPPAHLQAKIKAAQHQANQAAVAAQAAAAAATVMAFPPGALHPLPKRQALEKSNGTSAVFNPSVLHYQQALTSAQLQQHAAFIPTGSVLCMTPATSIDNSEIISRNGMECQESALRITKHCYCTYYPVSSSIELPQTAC
UniProt Q4V328: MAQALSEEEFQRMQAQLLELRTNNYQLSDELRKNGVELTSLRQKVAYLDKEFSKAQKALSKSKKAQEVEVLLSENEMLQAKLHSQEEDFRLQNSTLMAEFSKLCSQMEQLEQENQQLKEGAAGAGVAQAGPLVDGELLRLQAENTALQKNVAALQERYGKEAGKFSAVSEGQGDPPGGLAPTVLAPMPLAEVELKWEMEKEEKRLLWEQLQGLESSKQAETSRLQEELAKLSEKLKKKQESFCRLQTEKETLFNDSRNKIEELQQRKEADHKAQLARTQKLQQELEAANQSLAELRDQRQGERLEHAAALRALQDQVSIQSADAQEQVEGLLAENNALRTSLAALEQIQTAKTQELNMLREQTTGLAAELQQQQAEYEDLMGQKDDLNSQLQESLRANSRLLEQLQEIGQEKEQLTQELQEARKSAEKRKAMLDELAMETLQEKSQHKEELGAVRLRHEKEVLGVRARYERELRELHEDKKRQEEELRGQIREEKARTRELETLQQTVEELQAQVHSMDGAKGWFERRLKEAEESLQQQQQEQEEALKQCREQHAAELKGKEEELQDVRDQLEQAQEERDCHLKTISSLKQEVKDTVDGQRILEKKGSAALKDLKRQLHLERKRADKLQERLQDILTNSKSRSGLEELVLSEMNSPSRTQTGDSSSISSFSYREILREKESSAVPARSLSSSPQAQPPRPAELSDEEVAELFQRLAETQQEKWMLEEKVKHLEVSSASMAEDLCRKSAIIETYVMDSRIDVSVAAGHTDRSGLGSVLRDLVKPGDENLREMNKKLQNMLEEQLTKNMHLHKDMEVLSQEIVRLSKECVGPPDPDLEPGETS
UniProt Q53H47: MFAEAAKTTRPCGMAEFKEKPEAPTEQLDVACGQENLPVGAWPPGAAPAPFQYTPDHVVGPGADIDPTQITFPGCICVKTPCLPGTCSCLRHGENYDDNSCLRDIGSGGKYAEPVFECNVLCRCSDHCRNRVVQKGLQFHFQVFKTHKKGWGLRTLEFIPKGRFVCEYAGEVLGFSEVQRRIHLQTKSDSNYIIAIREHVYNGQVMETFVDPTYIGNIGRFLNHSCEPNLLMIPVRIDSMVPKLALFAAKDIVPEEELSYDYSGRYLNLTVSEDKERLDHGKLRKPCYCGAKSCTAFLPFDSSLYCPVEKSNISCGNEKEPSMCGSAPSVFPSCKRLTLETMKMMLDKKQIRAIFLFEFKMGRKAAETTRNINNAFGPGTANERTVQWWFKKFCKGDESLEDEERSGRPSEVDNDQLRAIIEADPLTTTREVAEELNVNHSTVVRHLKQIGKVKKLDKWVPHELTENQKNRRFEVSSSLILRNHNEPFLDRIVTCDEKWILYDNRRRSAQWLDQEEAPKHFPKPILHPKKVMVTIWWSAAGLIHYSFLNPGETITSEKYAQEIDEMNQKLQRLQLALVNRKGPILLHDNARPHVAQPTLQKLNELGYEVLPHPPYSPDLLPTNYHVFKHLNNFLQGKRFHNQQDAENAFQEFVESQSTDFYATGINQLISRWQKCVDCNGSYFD
UniProt Q5TC82: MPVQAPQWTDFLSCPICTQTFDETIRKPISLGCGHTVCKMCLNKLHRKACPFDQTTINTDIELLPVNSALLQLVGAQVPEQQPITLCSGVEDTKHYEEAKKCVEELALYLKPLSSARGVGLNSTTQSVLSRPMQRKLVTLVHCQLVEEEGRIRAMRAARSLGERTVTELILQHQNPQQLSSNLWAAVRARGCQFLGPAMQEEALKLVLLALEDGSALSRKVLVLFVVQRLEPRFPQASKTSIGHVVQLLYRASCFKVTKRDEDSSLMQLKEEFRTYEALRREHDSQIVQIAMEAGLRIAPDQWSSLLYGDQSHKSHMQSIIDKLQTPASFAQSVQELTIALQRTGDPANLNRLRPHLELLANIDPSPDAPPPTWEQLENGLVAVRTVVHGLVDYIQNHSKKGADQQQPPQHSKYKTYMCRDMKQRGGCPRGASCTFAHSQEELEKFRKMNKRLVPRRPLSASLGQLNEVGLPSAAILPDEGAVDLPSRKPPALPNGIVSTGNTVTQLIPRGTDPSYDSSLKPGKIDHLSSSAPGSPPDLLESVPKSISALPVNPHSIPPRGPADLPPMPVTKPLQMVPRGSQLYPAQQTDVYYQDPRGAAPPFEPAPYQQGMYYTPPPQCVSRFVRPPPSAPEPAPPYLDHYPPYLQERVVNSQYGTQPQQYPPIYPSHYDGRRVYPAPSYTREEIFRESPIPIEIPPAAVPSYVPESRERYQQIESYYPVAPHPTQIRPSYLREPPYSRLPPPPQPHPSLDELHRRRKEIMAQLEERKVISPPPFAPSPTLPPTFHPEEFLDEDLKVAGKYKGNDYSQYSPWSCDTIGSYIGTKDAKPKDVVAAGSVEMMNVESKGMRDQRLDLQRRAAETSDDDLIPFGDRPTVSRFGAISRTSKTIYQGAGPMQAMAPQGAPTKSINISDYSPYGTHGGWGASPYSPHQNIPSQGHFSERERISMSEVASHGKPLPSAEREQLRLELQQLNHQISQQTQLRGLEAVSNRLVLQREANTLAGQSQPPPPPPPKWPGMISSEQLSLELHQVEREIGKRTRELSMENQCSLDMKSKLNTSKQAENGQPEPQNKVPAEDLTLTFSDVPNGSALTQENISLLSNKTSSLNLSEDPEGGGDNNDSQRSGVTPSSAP
UniProt Q4VC31: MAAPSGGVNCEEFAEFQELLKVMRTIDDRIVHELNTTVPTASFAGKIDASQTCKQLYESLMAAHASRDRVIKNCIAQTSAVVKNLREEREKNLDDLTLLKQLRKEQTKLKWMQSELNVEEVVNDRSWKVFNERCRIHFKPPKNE
UniProt Q6NXE6: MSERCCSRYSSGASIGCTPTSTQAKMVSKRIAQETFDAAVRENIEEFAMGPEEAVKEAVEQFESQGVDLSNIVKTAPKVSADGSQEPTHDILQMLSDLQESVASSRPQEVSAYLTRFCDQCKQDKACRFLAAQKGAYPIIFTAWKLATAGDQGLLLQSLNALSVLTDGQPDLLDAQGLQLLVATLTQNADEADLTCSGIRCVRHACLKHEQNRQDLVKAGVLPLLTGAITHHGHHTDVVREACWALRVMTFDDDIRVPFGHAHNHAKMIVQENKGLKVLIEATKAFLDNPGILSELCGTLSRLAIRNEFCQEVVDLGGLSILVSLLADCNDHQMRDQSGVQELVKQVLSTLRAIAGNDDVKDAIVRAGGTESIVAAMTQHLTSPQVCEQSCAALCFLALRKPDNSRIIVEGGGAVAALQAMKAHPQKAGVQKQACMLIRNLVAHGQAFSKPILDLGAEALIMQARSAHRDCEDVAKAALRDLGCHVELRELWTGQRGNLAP
UniProt Q68CP9, whole entry: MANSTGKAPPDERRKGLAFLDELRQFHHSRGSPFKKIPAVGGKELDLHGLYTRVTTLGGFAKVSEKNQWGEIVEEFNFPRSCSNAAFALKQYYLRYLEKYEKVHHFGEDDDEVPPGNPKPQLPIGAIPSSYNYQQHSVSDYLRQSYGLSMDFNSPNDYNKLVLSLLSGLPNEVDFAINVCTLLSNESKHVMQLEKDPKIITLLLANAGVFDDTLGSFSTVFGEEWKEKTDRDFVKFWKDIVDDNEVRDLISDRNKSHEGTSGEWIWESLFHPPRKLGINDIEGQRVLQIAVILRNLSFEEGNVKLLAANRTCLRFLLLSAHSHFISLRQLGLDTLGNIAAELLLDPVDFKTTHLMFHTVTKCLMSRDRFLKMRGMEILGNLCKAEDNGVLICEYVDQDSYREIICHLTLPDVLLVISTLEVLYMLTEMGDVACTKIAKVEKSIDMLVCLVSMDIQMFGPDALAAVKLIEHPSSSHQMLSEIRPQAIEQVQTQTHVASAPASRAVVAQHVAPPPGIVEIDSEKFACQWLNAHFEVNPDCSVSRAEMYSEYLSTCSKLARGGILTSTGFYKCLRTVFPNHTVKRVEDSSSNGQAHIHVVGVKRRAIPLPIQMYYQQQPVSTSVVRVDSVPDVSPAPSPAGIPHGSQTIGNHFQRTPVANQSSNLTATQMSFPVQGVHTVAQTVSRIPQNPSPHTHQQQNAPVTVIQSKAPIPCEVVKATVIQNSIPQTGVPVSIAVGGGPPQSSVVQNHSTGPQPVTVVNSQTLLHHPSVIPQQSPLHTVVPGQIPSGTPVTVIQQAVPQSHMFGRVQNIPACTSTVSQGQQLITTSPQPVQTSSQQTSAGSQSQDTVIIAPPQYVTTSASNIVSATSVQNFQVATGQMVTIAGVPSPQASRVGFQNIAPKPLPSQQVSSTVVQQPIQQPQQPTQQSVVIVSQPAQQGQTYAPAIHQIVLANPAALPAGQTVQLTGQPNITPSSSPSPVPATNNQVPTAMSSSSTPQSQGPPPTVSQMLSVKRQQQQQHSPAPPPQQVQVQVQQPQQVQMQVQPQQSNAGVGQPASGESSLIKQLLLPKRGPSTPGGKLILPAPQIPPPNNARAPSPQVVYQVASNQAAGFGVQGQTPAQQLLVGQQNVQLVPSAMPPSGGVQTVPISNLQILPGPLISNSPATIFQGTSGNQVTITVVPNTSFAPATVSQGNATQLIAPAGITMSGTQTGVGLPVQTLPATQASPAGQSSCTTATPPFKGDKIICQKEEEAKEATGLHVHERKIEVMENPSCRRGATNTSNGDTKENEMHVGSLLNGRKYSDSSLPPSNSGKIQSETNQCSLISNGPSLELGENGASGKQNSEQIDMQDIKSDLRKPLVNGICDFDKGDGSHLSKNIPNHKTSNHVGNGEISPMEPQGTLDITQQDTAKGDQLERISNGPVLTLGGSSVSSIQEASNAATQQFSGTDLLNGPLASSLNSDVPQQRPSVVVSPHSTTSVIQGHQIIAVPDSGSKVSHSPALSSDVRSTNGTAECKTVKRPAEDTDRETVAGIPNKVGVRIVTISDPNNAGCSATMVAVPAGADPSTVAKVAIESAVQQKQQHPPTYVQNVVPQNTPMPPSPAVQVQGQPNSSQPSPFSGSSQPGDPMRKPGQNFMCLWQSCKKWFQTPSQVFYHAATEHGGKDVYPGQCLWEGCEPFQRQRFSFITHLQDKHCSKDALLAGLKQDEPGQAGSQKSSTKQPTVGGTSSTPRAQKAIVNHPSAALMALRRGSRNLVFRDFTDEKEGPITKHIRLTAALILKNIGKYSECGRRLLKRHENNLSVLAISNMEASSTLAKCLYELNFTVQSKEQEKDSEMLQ

Compound: Nc1ncnc2c1ncn2[C@@H]1O[C@H](COP(=O)(O)OP(=O)(O)OP(=O)(O)O)[C@@H](O)[C@H]1O [adenosine triphosphate]
Assay: NP40-soluble protein abundance relative to vehicle (solubility fold change) (ratio); higher = more soluble protein in presence of ATP
In short: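 Across three independent experiments, values are fold changes against the detergent-processed vehicle for each replicate, based on vsn-normalised intensities. The samples were Jurkat crude lysate treated with eight concentrations (0.1 to 10 mM) for 10 min at room temperature and then 3 min at 37 °C. Lysate was solubilised with 0.8% NP40 and benzonase, ultracentrifuged, and the supernatant analysed by TMT-labelled LC-MS/MS.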

Target	NP40-soluble protein abundance (concentration: 0.1mM)	NP40-soluble protein abundance (concentration: 0.5mM)
SLC25A24 (UniProt Q6NUK1)	0.888 ± 0.089	0.919 ± 0.054
PRPF8 (UniProt Q6P2Q9)	1.03 ± 0.037	1.051 ± 0.0033
AARS2 (UniProt Q5JTZ9)	1.05 ± 0.06	1.06 ± 0.036
METTL2B (UniProt Q6P1Q9)	1.01 ± 0.053	1.04 ± 0.074
Q5VV50 and related entries (UniProt Q5VV52)	0.966 ± 0.064	1.04 ± 0.029
DHX57 (UniProt Q6P158)	1.07 ± 0.045	1.05 ± 0.09
UniProt Q5VST6	0.937 ± 0.036	0.943 ± 0.043
UniProt Q63HQ0	1.01 ± 0.038	0.966 ± 0.02
PGM2L1 (UniProt Q6PCE3)	0.999 ± 0.052	1.02 ± 0.011
CDCA8 (UniProt Q53HL2)	1.01 ± 0.13	0.899 ± 0.17
UniProt Q5M775 and related entries	0.956 ± 0.019	0.933 ± 0.044
ERAP2 (UniProt Q6P179)	0.9555 ± 0.0031	0.954 ± 0.049
UniProt Q5T011 and related entries	0.946 ± 0.024	0.942 ± 0.097
UniProt Q5VWP2	1.04 ± 0.04	0.966 ± 0.041
ERICH5 (UniProt Q6P6B1)	0.903 ± 0.071	0.897 ± 0.059
UniProt Q6IE81 and related entries	1.12 ± 0.26	1.11 ± 0.087
UniProt Q5T8I3 and related entries	1 ± 0.064	1.01 ± 0.075
ZMYM1 (UniProt Q5SVZ6)	1.02 ± 0.012	0.988 ± 0.033
UniProt Q659A1	1 ± 0.12	0.984 ± 0.071
RETSAT (UniProt Q6NUM9)	0.93 ± 0.092	0.906 ± 0.094
Q5SZG2 and related entries (UniProt Q8TAK5)	0.949 ± 0.011	0.925 ± 0.065
RPRD2 (UniProt Q5VT52)	1.02 ± 0.036	1.05 ± 0.046
UHRF1BP1 (UniProt Q6BDS2)	1.02 ± 0.04	1.07 ± 0.075
HABP4 (UniProt Q5JVS0)	1.08 ± 0.36	1.53 ± 0.14
UniProt Q5XUX1 and related entries	1.08 ± 0.042	1.01 ± 0.031

Target	NP40-soluble protein abundance (concentration: 0.1mM)	NP40-soluble protein abundance (concentration: 0.5mM)
NADSYN1 (UniProt Q6IA69)	1.02 ± 0.06	1.01 ± 0.12
UniProt Q5VSL9	0.969 ± 0.04	0.9792 ± 0.0057
UniProt Q5SGD2 and related entries	1.06 ± 0.022	0.954 ± 0.09
Q5T5C7 (UniProt P49591)	1.03 ± 0.077	0.997 ± 0.1
RIF1 (UniProt Q5UIP0)	0.991 ± 0.024	1.05 ± 0.048
Q5LJA5 and related entries (UniProt Q9Y5K5)	0.993 ± 0.047	0.985 ± 0.033
UniProt Q53F19	0.993 ± 0.016	1.01 ± 0.05
UniProt Q5BJH7 and related entries	0.643 ± 0.5	1.02 ± 0.015
UniProt Q5JSH3 and related entries	0.99 ± 0.02	0.987 ± 0.022
ZCCHC8 (UniProt Q6NZY4)	0.989 ± 0.067	0.967 ± 0.066
AMOT (UniProt Q4VCS5)	0.976 ± 0.067	0.926 ± 0.096
UniProt Q6N069	1.07 ± 0.09	1.05 ± 0.052
NT5DC1 (UniProt Q5TFE4)	1.04 ± 0.11	1.04 ± 0.057
CWF19L1 (UniProt Q69YN2)	1.01 ± 0.037	1.03 ± 0.032
REEP3 (UniProt Q6NUK4)	1.09 ± 0.052	1.22 ± 0.16
OCIAD2 (UniProt Q56VL3)	0.929 ± 0.052	0.895 ± 0.084
UniProt Q5THK1 and related entries	0.921 ± 0.12	0.892 ± 0.085
UniProt Q5F1R6 and related entries	1.02 ± 0.055	1.01 ± 0.033
SLC27A4 (UniProt Q6P1M0)	1 ± 0.024	1.02 ± 0.036
UniProt Q6ICG6 and related entries	1.03 ± 0.07	1.12 ± 0.054
UniProt Q5JTH9 and related entries	0.988 ± 0.029	1.03 ± 0.074
UniProt Q5T6F0	1.01 ± 0.031	0.947 ± 0.056
DNTTIP2 (UniProt Q5QJE6)	1.036 ± 0.0089	1.2 ± 0.033
NUP188 (UniProt Q5SRE5)	1.05 ± 0.024	1.06 ± 0.045
CMPK2 (UniProt Q5EBM0)	1.04 ± 0.063	1.03 ± 0.055

Single values from above.
NP40-soluble protein abundance (concentration: 0.5mM), OCIAD2 (UniProt Q56VL3) reads 0.895 ± 0.084
NP40-soluble protein abundance (concentration: 0.1mM), UniProt Q6N069 reads 1.07 ± 0.09
NP40-soluble protein abundance (concentration: 0.1mM), UniProt Q6ICG6 and related entries reads 1.03 ± 0.07
NP40-soluble protein abundance (concentration: 0.5mM), Q5LJA5 and related entries (UniProt Q9Y5K5) reads 0.985 ± 0.033
NP40-soluble protein abundance (concentration: 0.5mM), CWF19L1 (UniProt Q69YN2) reads 1.03 ± 0.032
NP40-soluble protein abundance (concentration: 0.5mM), UniProt Q5T6F0 reads 0.947 ± 0.056

Continued.

Target	NP40-soluble protein abundance (concentration: 0.1mM)	NP40-soluble protein abundance (concentration: 0.5mM)
XAF1 (UniProt Q6GPH4)	1.02 ± 0.017	1.02 ± 0.035
UniProt Q5BKY9 and related entries	1.03 ± 0.057	1.09 ± 0.065
Q5JSC0 and related entries (UniProt Q5VZF2)	1.04 ± 0.04	1.05 ± 0.016
Q5JVZ5 and related entries (UniProt Q96JJ3)	1.03 ± 0.061	1.08 ± 0.083
UniProt Q4KMQ2 and related entries	0.9927 ± 0.0041	0.981 ± 0.037
UniProt Q6MZP7 and related entries	0.97 ± 0.011	1.01 ± 0.029
TAF3 (UniProt Q5VWG9)	0.988 ± 0.075	1.05 ± 0.092
UniProt Q5T3I0 and related entries	1.06 ± 0.036	1.13 ± 0.12
UniProt Q68DK2 and related entries	0.932 ± 0.038	0.984 ± 0.053
UniProt Q6NT76 and related entries	0.953 ± 0.068	0.935 ± 0.033
KLHL26 (UniProt Q53HC5)	1.08 ± 0.098	1.15 ± 0.1
UniProt Q5W0U4 and related entries	1.006 ± 0.0073	1.06 ± 0.03
UniProt Q5U5Q3 and related entries	0.86 ± 0.086	0.972 ± 0.044
CEP55 (UniProt Q53EZ4)	0.967 ± 0.068	0.988 ± 0.022
Q5TBM3 and related entries (UniProt Q92598)	0.988 ± 0.058	1.01 ± 0.076
UniProt Q5T4F4-2|Q5T4F4-7|Q5T4F4-8|Q5T4F4 and related entries	0.979 ± 0.095	1 ± 0.13
CDKAL1 (UniProt Q5VV42)	1 ± 0.061	1.02 ± 0.036
RCSD1 (UniProt Q6JBY9)	0.888 ± 0.06	0.816 ± 0.069
UniProt Q4V328 and related entries	0.995 ± 0.017	0.982 ± 0.036
UniProt Q53H47 and related entries	1.01 ± 0.026	1.01 ± 0.028
UniProt Q5H8A4-5|Q5H8A4-6	1.01 ± 0.019	1 ± 0.051
MRPL2 (UniProt Q5T653)	1.04 ± 0.14	0.973 ± 0.11
UniProt Q5TC82 and related entries	1.06 ± 0.061	1.04 ± 0.051
SMYD5 (UniProt Q6GMV2)	1.04 ± 0.06	0.9903 ± 0.002
PPP2R2D (UniProt Q66LE6)	1.08 ± 0.091	1.11 ± 0.063

Target	NP40-soluble protein abundance (concentration: 0.1mM)	NP40-soluble protein abundance (concentration: 0.5mM)
ANKRD54 (UniProt Q6NXT1)	0.92 ± 0.1	0.901 ± 0.052
UniProt Q5T2D3	1.1079 ± 0.00099	1.24 ± 0.24
UniProt Q6P4R8 and related entries	0.98 ± 0.086	1.04 ± 0.084
FAM91A1 (UniProt Q658Y4)	1.022 ± 0.0053	1.04 ± 0.018
OGFOD2 (UniProt Q6N063)	1.06 ± 0.11	1.02 ± 0.15
UniProt Q5JSZ5	0.99 ± 0.09	0.999 ± 0.065
EAPP (UniProt Q56P03)	0.999 ± 0.057	0.99 ± 0.03
TMEM41B (UniProt Q5BJD5)	1.02 ± 0.087	0.985 ± 0.013
CCDC58 (UniProt Q4VC31)	0.949 ± 0.079	0.936 ± 0.1
Q5TH30 and related entries (UniProt Q9UGV2)	1.02 ± 0.04	1.01 ± 0.043
UniProt Q6P2H3 and related entries	0.95 ± 0.048	0.939 ± 0.032
NIPBL (UniProt Q6KC79)	1.028 ± 0.0066	1.1 ± 0.049
Q5TCJ5 and related entries (UniProt Q9H3S1)	1.04 ± 0.048	1.05 ± 0.033
UniProt Q6NXE6 and related entries	0.98 ± 0.018	0.947 ± 0.033
CEP350 (UniProt Q5VT06)	1.01 ± 0.058	0.968 ± 0.12
BOLA3 (UniProt Q53S33)	1.08 ± 0.19	0.903 ± 0.094
UniProt Q6P9B6	1.01 ± 0.055	1.05 ± 0.06
FAM160B1 (UniProt Q5W0V3)	1.03 ± 0.011	1.04 ± 0.049
ARID2 (UniProt Q68CP9)	1.03 ± 0.04	1.16 ± 0.056
UniProt Q5T0D9 and related entries	1.09 ± 0.15	1.01 ± 0.16
UniProt Q6P2P2	1.07 ± 0.077	1.05 ± 0.071
GLT8D1 (UniProt Q68CQ7)	0.968 ± 0.055	0.999 ± 0.011
UniProt Q5T0B9	1 ± 0.076	0.974 ± 0.076
